Results as given in PMC11904782.

Protein sequences, listed by entry. Tags and fused reporters are not part of them.
UniProt O14497: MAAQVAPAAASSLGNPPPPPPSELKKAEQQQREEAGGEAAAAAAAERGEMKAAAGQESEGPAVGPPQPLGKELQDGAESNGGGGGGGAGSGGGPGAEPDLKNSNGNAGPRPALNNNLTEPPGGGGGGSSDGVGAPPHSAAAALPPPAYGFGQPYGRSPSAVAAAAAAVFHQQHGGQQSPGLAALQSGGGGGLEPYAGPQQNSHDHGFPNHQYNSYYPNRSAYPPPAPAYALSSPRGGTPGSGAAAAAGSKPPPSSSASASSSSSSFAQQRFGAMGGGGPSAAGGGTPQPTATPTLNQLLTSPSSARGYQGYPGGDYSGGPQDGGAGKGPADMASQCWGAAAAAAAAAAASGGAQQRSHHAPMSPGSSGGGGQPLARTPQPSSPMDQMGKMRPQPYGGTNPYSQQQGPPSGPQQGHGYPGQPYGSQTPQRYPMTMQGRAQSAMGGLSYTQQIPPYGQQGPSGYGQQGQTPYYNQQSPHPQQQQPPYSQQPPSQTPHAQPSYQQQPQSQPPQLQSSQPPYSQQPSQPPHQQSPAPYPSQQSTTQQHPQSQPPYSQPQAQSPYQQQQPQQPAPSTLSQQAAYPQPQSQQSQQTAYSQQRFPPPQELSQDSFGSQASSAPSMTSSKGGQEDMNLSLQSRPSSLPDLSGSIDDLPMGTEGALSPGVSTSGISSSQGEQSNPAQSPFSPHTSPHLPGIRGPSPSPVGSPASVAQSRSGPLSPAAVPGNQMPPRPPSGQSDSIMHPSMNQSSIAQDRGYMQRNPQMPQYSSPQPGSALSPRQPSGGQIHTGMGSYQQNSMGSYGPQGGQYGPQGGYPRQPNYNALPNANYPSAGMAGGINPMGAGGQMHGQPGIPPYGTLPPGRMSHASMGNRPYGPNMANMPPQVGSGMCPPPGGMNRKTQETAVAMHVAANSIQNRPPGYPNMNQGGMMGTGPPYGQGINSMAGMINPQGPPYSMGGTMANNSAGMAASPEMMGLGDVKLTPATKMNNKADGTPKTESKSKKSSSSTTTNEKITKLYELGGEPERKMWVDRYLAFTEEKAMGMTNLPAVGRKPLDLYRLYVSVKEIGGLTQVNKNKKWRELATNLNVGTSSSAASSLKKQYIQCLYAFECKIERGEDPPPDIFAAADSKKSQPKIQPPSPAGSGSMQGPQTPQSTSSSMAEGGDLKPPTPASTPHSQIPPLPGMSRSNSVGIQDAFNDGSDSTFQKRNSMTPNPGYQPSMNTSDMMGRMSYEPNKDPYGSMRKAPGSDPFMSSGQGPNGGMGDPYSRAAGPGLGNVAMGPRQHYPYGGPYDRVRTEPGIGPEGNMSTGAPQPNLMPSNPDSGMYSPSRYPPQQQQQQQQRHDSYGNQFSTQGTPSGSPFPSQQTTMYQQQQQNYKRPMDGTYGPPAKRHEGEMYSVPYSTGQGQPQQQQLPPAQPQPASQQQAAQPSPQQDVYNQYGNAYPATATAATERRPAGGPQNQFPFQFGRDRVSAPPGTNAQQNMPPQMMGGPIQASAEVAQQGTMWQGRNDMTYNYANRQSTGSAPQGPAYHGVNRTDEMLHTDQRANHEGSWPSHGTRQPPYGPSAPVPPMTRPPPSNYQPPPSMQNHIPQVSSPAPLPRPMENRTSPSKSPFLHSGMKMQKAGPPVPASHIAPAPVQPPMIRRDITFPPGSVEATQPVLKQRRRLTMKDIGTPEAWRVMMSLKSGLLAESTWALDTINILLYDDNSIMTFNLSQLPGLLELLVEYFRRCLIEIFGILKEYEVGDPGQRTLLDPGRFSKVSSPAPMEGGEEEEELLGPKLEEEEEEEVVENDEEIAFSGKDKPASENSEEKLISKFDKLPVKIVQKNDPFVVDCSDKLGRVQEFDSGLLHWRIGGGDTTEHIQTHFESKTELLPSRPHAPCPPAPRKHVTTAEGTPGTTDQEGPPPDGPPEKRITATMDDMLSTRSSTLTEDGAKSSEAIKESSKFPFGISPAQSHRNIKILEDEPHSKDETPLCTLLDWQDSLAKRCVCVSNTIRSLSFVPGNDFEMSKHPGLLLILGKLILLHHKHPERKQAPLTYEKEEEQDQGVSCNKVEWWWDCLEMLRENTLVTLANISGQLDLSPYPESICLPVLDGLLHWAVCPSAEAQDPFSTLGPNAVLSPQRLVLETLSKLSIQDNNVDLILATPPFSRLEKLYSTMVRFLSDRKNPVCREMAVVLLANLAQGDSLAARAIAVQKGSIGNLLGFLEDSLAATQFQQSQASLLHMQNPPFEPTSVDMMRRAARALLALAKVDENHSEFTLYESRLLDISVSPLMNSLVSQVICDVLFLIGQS
UniProt Q52LJ0: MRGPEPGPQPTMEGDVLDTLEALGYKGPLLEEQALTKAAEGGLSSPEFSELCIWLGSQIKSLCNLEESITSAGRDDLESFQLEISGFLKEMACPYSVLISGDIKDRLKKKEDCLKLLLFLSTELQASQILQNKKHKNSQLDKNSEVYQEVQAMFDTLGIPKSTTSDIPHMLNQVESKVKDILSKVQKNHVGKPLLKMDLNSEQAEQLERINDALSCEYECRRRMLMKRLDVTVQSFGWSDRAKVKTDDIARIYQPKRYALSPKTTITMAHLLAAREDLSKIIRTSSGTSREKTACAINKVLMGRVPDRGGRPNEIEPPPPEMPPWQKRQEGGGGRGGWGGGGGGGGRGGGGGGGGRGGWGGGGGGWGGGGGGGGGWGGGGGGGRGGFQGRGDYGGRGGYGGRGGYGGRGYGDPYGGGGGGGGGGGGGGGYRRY
UniProt P51532: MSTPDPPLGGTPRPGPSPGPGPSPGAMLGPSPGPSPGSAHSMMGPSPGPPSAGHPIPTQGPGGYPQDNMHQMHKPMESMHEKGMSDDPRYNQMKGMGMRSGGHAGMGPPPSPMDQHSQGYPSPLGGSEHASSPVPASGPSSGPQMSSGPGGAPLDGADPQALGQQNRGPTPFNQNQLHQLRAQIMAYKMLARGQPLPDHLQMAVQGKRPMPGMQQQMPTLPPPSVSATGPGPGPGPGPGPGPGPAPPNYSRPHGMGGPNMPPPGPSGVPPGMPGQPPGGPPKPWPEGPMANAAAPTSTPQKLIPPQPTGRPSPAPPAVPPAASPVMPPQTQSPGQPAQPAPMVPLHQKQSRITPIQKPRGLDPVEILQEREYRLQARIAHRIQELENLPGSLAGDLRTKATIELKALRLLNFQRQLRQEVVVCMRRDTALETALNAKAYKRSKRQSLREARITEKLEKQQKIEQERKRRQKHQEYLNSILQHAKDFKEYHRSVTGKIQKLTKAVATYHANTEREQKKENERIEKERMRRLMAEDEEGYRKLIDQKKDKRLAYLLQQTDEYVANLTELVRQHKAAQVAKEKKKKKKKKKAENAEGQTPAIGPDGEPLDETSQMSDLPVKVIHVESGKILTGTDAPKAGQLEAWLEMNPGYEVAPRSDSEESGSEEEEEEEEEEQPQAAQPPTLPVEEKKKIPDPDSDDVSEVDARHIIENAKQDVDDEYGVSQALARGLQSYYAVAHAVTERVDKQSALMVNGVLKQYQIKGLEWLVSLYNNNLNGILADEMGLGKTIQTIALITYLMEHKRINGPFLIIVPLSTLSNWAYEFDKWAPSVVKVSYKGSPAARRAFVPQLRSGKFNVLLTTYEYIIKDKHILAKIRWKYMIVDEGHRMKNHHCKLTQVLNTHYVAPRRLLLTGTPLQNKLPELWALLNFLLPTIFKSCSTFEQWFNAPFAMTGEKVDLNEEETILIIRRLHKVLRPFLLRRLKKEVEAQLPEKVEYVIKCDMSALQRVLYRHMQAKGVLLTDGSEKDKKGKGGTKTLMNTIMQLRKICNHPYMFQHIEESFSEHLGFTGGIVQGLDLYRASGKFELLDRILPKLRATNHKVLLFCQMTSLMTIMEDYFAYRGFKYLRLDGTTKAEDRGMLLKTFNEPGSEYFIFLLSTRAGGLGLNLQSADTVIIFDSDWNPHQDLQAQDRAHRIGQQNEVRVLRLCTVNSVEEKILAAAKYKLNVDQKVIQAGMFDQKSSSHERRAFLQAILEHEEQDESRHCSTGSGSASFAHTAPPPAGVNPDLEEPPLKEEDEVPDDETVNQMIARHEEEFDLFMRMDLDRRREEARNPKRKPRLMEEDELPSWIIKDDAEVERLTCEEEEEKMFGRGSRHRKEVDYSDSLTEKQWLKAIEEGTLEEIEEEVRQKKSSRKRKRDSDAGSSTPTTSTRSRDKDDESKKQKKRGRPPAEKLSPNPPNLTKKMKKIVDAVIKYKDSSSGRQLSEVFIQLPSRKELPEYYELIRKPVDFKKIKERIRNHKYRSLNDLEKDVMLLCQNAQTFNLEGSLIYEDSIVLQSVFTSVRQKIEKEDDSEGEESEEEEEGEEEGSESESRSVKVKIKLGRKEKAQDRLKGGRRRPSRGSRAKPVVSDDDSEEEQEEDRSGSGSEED
UniProt O96019: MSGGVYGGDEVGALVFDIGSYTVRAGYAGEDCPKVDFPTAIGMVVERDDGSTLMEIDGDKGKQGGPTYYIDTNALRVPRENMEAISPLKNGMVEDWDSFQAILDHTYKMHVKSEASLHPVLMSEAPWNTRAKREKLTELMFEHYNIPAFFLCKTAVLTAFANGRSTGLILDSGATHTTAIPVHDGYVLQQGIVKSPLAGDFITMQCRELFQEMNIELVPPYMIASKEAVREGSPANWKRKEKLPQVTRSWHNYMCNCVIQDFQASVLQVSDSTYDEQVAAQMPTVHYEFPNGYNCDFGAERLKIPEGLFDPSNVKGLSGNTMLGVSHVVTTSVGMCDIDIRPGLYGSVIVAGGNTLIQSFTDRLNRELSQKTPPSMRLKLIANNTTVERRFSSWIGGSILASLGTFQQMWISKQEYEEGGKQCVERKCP

target: AT-interacting domain-rich protein 1A (ARID1A), endogenous (human (endogenous in HEK293 and HCT116)) (UniProt O14497); assay: affinity purification with mass spectrometry; endogenous ARID1A immunoprecipitated with anti-ARID1A (C-7) on protein A/G magnetic beads from HEK293 nuclear extract (300 mM NaCl, 0.5% NP-40, DNase, RNase), 2 h 4°C; eluted with 1.2 M NaCl; silver-stained bands analysed by nanoflow HPLC-MS/MS

binding, binds:
FAM98B (from UniProt Q52LJ0 1-433)
SMARCA4 (from UniProt P51532 1-1647)
actin-like 6A (from UniProt O96019 1-429)

Results are given in words; binding and its absence hold for the method and conditions named. Binding seen in cells or lysates may run through a third protein. A yes stands for co-enrichment or nearness to the bait. Other partners may have been found.
